Measured values as given in PubChem BioAssay AID540303 (National Center for Advancing Translational Sciences (NCATS), 2011).
In all, about 330,000 compounds went through this assay and about 1,000 (0.3%) were called active. The shares of active, inactive and inconclusive entries below differ from those in the screen. Calls follow the shape of the dose curve; as a rule, active = well fitted inhibition curve with a large enough effect; inconclusive = small, poorly fitted or top-dose-only effect; inactive = no such curve, though single readings can be large or run the other way; tested in mouse RAW 264.7 cells. Where the call is inconclusive, the potency comes from a doubtful curve fit.

assay: qHTS for Inhibitors of Cell Surface uPA Generation; conditions: cell surface uPA generation assay; series mostly up to 38.3 µM; activity change, negative = inhibition: at the top concentration; also: nearly all actives have a fitted effect of over 55% in size
Outline: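 RAW 264.7, 4000 cells/well, o/n 37 C; cpd 1:5 dilution, up to 38.3 uM final; 24 h 37 C/5% CO2 with reagent; ATP-Lite lum. High ATP = LF entry blocked.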
% is scaled to controls: 0 for no effect and ±100 for the full control effect; potency is read from the fitted curve at half-maximal effect.

Compound	Potency	activity change, negative = inhibition
CN1CCN(C(=O)/C(=C/c2cn(C)c3ccccc23)NC(=O)c2ccccc2)CC1	inconclusive: 0.316 µM [inhibitor, full curve, poor fit]	
CCOC(=O)c1ccc(NC(=O)c2nc[nH]c2C(=O)N[C@@H](CCCCNC(=O)OC(C)(C)C)C(=O)OC(C)(C)C)cc1	inconclusive: 28.2 µM [inhibitor, single point]	
CC/C(=C/c1ccccc1)c1cccc2[nH]c3c(OC)cccc3c12	inconclusive: 12.6 µM [inhibitor, single point]	
O=C(CSc1nnc(NC(=O)c2ccccc2F)s1)NCc1ccc(F)cc1		inactive: -11.3%
[O-][n+]1c2ccccc2c2n1CCN1CCOC21c1ccc(Cl)cc1 (stereo unspecified)	inconclusive: 8.91 µM [inhibitor, partial curve, poor fit]	
CN(C)C(=S)Nc1nc2ccccc2s1		inactive: 5.76%
C=CCNc1nc2c(c(=O)n(C)c(=O)n2C)n1CCCCCC		inactive: -12.1%
C[C@H](CO)N1C[C@H](C)[C@@H](CN(C)Cc2ccc(Cl)c(Cl)c2)Oc2c(NC(=O)Cc3ccccc3)cccc2C1=O	inconclusive: 8.91 µM [inhibitor, single point]	
Cc1ccc(C(=O)/C=C/Nc2cccc(O)c2)cc1	inconclusive: 3.98 µM [inhibitor, partial curve]	
O=C(N/N=C/c1ccc(O)c(O)c1)c1cccc(S(=O)(=O)N2CCCC2)c1	inconclusive: 12.6 µM [inhibitor, partial curve, poor fit]	
Cc1ccc2nc(-c3ccc(Br)cc3)cn2c1	active: 2.82 µM	
O=C(c1cc(-c2ccc(F)cc2)nc2ccccc12)N1CCN(C2CCS(=O)(=O)C2)CC1 (stereo unspecified)	inconclusive: 8.91 µM [inhibitor, partial curve, poor fit]	
O=C(Nc1ccc2c(c1)OCCO2)c1cc2sccc2n1Cc1ccc(F)cc1		inactive: -1.34%
CCCc1noc2c1C(c1cc(Br)ccc1F)C(C#N)=C(N)N2 (stereo unspecified)	inconclusive: 12.6 µM [inhibitor, single point]	
Cc1ccc2c(cnn2C(=O)CCCC(=O)NCc2ccc(F)cc2)c1	inconclusive: 12.6 µM [inhibitor, single point]	
COc1ccc(CCn2c(=N)c(C(=O)NCc3ccco3)cc3c(=O)n4ccccc4nc32)cc1	inconclusive: 8.91 µM [inhibitor, partial curve]	
CN1C(=O)C(=C2CCCCCC2)SC1=S		inactive: 6.97%
COc1ccc2c(c1)oc1c(SCc3nc4ccccc4[nH]3)nc(C)nc12	inconclusive: 7.94 µM [inhibitor, partial curve, poor fit]	
COc1ccc(C(=O)c2sc3nc(-c4ccccc4)ccc3c2N)cc1		inactive: 6.77%
COc1ccc2nc(NC(=O)c3ccco3)sc2c1	inconclusive: 2.51 µM [inhibitor, partial curve, poor fit]	
CCOc1ccc(S(=O)(=O)n2nc(C)cc2C)c2ccccc12		inactive: -3.37%
O=C(c1ccco1)N1CCN(C(=O)c2ccc(CS(=O)c3cccc(Cl)c3)o2)CC1 (stereo unspecified)		inactive: -2.73%

Compound	Potency	activity change, negative = inhibition
O=C(Cn1ccc(NC(=O)OCc2ccccc2)nc1=O)NCCc1c[nH]c2ccccc12		inactive: 1.57%
C/C(=N/NS(=O)(=O)c1ccc(CC(C)C)cc1)c1ccncc1	inconclusive: 14.1 µM [inhibitor, partial curve, poor fit]	
CCCCCCN(C(=O)CCCN1C(=O)NC(c2ccc([N+](=O)[O-])cc2)C(C(=O)OCc2ccccc2)=C1C)C(C)C(=O)NCCCC (stereo unspecified)	inconclusive: 28.2 µM [inhibitor, single point]	
Cc1ccccc1Nc1nc(N)nc(CSc2nnnn2C)n1	inconclusive: 0.447 µM [inhibitor, full curve, poor fit]	
Cc1cccc(NC(=S)N(CCN(C)C)Cc2cc3cccc(C)c3[nH]c2=O)c1		inactive: -4.77%
CCOC(=O)Cn1c(-c2ccc(OC)cc2)c(-c2ccc(OC)cc2)nnc1=O	inconclusive: 0.891 µM [inhibitor, full curve, poor fit]	
Cc1ccc2c(c1)C1CN(C)CCC1N2S(=O)(=O)c1ccc(Oc2ccc([N+](=O)[O-])cc2)cc1 (stereo unspecified)	active: 8.91 µM	
COc1ccc(C2=Nn3c(nnc3-c3ccccc3F)SC2)cc1OCC1CC1	inconclusive: 4.47 µM [inhibitor, partial curve]	
CC(C)[C@H](NC(=O)c1ccccc1)C(=O)OCC(=O)/C=C1/N(C)c2ccccc2C1(C)C	inconclusive: 31.6 µM [inhibitor, single point]	
O=C(N/N=C/c1ccccn1)c1ccc(NC(=O)c2ccccc2Cl)cc1		inactive: -2.95%
CC(C)c1ccc(CN(C)C(=O)c2ccc(S(=O)(=O)NCc3ccco3)cc2)cc1	inconclusive: 12.6 µM [inhibitor, single point]	
COc1ccc2c(c1)C(=O)[C@H](O)[C@@H](c1ccc(OC)c(Br)c1)O2	inconclusive: 15.8 µM [inhibitor, single point]	
N/C(=N\OC(=O)c1ccc(=O)n(Cc2ccc(Cl)cc2)c1)c1ccccn1	inconclusive: 12.6 µM [inhibitor, partial curve, poor fit]	
Cn1c(C(=O)N2CCN(Cc3ccccc3)CC2)cc2c(=O)n(C)c3ccccc3c21	inconclusive: 5.01 µM [inhibitor, single point]	
COc1cc(-c2nc3ccccc3s2)ccc1O	inconclusive: 4.47 µM [inhibitor, partial curve]	
CCCN1C(=O)C(=O)c2cc(Cl)ccc21	active: 5.62 µM	
O=c1cc(-c2c(F)c(F)c(F)c(F)c2F)oc2ccccc12	inconclusive: 12.6 µM [inhibitor, single point]	
Cc1ccc(S(=O)(=O)Nc2cccc3c2O[C@H](CN(C)Cc2ccc(-c4ccccc4)cc2)[C@@H](C)CN([C@H](C)CO)C3=O)cc1	inconclusive: 28.2 µM [inhibitor, single point]	
O=C(NC(=S)N1CCN(C/C=C/c2ccccc2)CC1)c1c(F)cccc1F		inactive: -4.15%
CC(C)(C)NC(=O)C(c1ccc(-c2ccccc2)cc1)N(C[C@H]1CC[C@@H]([C@@H]2CC[C@H](CO)O2)O1)C(=O)c1ccc(-c2ccccc2)cc1 (stereo partly specified)	inconclusive: 20 µM [inhibitor, single point]	
CCc1nn(-c2ccccc2)c2c1-c1cc(OC)c(OC)cc1C1(N2)C(=O)Nc2ccccc21 (stereo unspecified)		inactive: 2.06%
CC/C(=N/NC(=O)c1ccccc1)c1ccc(OCCN2CCOCC2)cc1		inactive: -4.6%

Compound	Potency	activity change, negative = inhibition
O=C(NC1CCC(O)CC1)c1cc(-c2ccc(Cl)cc2)nc2ccccc12 (stereo unspecified)		inactive: -0.377%
C=C(C)c1cccc(C(C)(C)NC(=O)NC2CC(C)(C)NC(C)(C)C2)c1		inactive: 13.7%
COc1ccccc1N=Nc1ccc(O)c2ncccc12	inconclusive: 7.94 µM [inhibitor, single point]	
Cc1ccc(NC(=O)CCN2CCC(Cc3ccccc3)CC2)cc1		inactive: 7.83%
O=[N+]([O-])c1cccc(NC(=S)Nc2nc(-c3ccccc3Cl)cs2)c1		inactive: -9.36%
CN(C)S(=O)(=O)n1cc(/C=C(\NC(=O)c2ccccc2F)C(=O)N2CCCC2)c2ccccc21		inactive: -5.43%
O=S(=O)(c1ccccc1)N1N=C(c2ccc(Cl)cc2)CC1c1ccco1 (stereo unspecified)	inconclusive: 8.91 µM [inhibitor, partial curve, poor fit]	
CC(=O)N1CCN=C1SCc1ccc(C(F)(F)F)cc1	inconclusive: 1.58 µM [inhibitor, single point]	
CCOc1cccc2sc(N(CCCN(C)C)C(=O)c3ccc(S(=O)(=O)N4CCCCCC4)cc3)nc12	inconclusive: 12.6 µM [inhibitor, partial curve]	
Cc1c(C(=O)Nc2cccc(Cl)c2)c2ccccn2c1CCc1ccncc1		inactive: -5.91%
COc1ccc(-c2cc3ncc(C(C)=O)c(C)n3n2)cc1		inactive: -10.7%
O=C(/C=C/c1ccc2c(c1)OCO2)NCCSCc1c(Cl)cccc1Cl		inactive: -1.57%
CC(C)(C)NCc1cccn1-c1sc2c(c1C#N)CCCC2		inactive: 1.5%
COc1ccc2c3c1O[C@H]1C[C@@H](O)C=C[C@@]31CCN(C)C2	inconclusive: 6.31 µM [inhibitor, partial curve, poor fit]	
O=C(C[C@H]1C/C=C\C[C@@H](NC(=O)OCC2c3ccccc3-c3ccccc32)C(=O)O[C@@H](c2ccccc2)CNC1=O)N[C@H](CO)Cc1ccccc1	inconclusive: 12.6 µM [inhibitor, single point]	
O=C(NCCC(=O)N(Cc1ccco1)Cc1cccs1)c1ccccc1Cl	inconclusive: 2.82 µM [inhibitor, full curve, poor fit]	
COc1ccc(/C=C2\Sc3ccc(C(=O)N4CCOCC4)cc3N(C)C2=O)cc1	inconclusive: 10 µM [inhibitor, partial curve, poor fit]	
CCCOC(c1ccccc1)(c1ccc(C(F)(F)F)cc1)C(Oc1nc(C)cc(C)n1)C(=O)O (stereo unspecified)	inconclusive: 5.62 µM [inhibitor, full curve, poor fit]	
COc1cc(/C=C/C(=O)OCc2cn3cc(Cl)ccc3n2)ccc1O	inconclusive: 7.94 µM [inhibitor, partial curve, poor fit]	
COc1ccc(S(=O)(=O)N2CCN(C(C)C(=O)Nc3ccc(C(C)C)cc3)CC2)cc1 (stereo unspecified)	inconclusive: 7.94 µM [inhibitor, single point]	
Cc1nn(Cc2c(Cl)cccc2Cl)c(C)c1NC(=O)c1cc(C(C)C)on1	active: 3.16 µM	
CCN(CC)C(=O)[C@H]1C[C@H](CC(=O)NCc2cccc(C(F)(F)F)c2)C(=O)N2CCc3c([nH]c4ccc(Cl)cc34)[C@]12C	inconclusive: 10 µM [inhibitor, partial curve, poor fit]	

Sorted by length of the SMILES (largest number first): some entries from above
Compound	Potency	activity change, negative = inhibition
O=C(/C=C/c1ccc2c(c1)OCO2)NCCSCc1c(Cl)cccc1Cl		inactive: -1.57%
CCOc1ccc(S(=O)(=O)n2nc(C)cc2C)c2ccccc12		inactive: -3.37%
CC(C)(C)NCc1cccn1-c1sc2c(c1C#N)CCCC2		inactive: 1.5%
